Test results published in paper PMC5147768.
These are yes or no findings as the source states them, for the method shown. In cells and extracts the contact can be indirect. Some binding calls cover weakened binding; strength is not graded here. Where a sequence is shown, tags or fusion partners need not be part of it.

The chains behind the UniProt entries cited, without tags or fusion partners.
UniProt Q9SP32: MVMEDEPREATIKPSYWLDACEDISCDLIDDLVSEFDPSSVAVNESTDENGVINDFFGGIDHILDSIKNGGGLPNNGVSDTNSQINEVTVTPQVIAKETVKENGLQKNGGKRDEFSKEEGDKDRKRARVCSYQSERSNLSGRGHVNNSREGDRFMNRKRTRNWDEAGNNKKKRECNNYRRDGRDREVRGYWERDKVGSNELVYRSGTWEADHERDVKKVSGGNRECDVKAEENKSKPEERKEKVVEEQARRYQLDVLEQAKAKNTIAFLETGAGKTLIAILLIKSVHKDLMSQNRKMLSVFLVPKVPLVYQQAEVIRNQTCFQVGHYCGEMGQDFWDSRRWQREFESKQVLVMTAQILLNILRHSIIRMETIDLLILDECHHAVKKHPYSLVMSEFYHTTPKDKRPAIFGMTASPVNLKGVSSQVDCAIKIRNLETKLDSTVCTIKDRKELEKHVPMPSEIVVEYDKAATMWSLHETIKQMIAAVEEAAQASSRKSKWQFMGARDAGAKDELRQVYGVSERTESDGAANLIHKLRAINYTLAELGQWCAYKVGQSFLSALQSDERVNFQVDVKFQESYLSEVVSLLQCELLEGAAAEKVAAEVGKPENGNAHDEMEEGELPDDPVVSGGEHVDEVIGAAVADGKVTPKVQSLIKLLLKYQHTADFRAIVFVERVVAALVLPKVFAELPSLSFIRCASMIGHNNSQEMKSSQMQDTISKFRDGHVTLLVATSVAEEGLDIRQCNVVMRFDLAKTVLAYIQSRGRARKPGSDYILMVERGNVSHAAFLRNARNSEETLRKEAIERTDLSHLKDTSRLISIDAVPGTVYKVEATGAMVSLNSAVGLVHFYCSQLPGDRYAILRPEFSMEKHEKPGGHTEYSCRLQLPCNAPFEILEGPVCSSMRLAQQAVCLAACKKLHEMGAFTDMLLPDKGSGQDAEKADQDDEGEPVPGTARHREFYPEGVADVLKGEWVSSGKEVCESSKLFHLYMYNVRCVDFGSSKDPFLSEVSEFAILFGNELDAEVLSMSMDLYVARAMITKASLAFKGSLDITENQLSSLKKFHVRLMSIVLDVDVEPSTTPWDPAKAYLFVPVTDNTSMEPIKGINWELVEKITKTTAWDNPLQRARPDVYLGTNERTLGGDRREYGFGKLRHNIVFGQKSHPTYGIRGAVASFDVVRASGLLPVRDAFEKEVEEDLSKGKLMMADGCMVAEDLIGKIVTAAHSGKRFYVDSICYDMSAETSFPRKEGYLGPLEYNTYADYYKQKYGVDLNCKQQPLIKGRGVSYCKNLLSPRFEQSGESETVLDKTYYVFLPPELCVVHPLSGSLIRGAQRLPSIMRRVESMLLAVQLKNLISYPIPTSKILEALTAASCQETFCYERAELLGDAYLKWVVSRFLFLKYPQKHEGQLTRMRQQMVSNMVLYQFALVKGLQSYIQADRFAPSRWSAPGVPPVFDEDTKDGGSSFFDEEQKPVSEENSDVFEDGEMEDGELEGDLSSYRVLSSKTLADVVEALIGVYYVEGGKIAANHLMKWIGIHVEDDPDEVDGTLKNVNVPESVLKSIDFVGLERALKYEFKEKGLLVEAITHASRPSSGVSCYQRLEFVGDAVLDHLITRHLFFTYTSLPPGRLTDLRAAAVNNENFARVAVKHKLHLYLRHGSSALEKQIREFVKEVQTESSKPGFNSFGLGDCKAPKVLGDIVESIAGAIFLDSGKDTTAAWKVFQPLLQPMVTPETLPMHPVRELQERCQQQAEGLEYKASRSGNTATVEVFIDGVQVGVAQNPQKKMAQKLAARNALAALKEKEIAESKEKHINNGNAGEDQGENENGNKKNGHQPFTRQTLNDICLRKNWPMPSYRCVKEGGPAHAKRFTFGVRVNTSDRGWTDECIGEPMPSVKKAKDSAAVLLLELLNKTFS

B1: HYL1-Flag (protein, UniProt O04492 1-419)
chain: MTSTDVSSGVSNCYVFKSRLQEYAQKYKLPTPVYEIVKEGPSHKSLFQSTVILDGVRYNSLPGFFNRKAAEQSAAEVALRELAKSSELSQCVSQPVHETGLCKNLLQEYAQKMNYAIPLYQCQKVETLGRVTQFTCTVEIGGIKYTGAATRTKKDAEISAGRTALLAIQSDTKNNLANYNTQLTVLPCEKKTIQAAIPLKETVKTLKARKAQFKKKAQKGKRTVAKNPEDIIIPPQPTDHCQNDQSEKIETTPNLEPSSCMNGLKEAAFGSVETEKIETTPNLEPPSCMNGLKEAAFGSVETEKIETTPNLEPPSCMNGLKEAAFGSVETEKIETTPNLEPSSCMNGLKEAAFGSVETEKIETTPNLEPPSCMNGLKEAAFGSVETEKIETTPNLESSSCMSGLKEAAFGSVETEASHA
B2: SE-Flag (protein, UniProt Q9ZVD0 1-720)
chain: MADVNLPPSDSVDNRLPEKSTSSSPPPPPPSSSLPQQEQEQDQQQLPLRRERDSRERRDERDIERPPPNRRERDRSPLPPPRRDYKRRPSLSPPPPYRDRRHSPPQRRSPPQKRYRRDDNGYDGRRGSPRGGYGPPDRRFGYDHGGGYDREMGGRPGYGDERPHGRFMGRYQDWEGGRGGYGDASNSGNPQRDGLMSYKQFIQELEDDILPSEAERRYQEYKSEYITTQKRAFFNTHKEEDWLKNKYHPTNLLSVIERRNDLAQKVAKDFLLDLQSGTLDLGPAVTALNKSGRTSEPNSEDEAAGVGKRKRHGMGGAKENELLSAAPKAPSFTSDPKRILTDVEQTQALVRKLDSEKKIEENVLQGSETEKSGREKLHSGSTGPVVIIRGLTSVKGLEGVELLDTLVTYLWRVHGLDYYGKVETNEAKGLRHVRAEGKVSDAKGDENESKFDSHWQERLKGQDPLEVMAAKEKIDAAATEALDPHVRKIRDEKYGWKYGCGAKGCTKLFHAAEFVYKHLKLKHTELVTELTTKVREELYFQNYMNDPNAPGGQPATQQSGPRDRPIRRKPSMENRLRDDRGGRRERDGRANGNDRNDRSEDQQRGDNDGGNPGEVGYDAFGGQGGVHVPPFLSDINPPPMLMPVPGAGPLGPFVPAPPEVAMQMFRDPSGPNPPFEGSGRGGPAPFLLSPAFRQDPRRLRSYQDLDAPEEEVTVIDYRSL

Target: DCL1-YFP (Dicer-Like 1 fused to YFP) (Arabidopsis thaliana) (UniProt Q9SP32)
Test: co-IP; DCL1-YFP co-expressed with DBR1-Flag, HYL1-Flag or SE-Flag in N. benthamiana; leaf lysate (50 mM Tris-HCl pH 8.0, 150 mM NaCl, 0.2% Nonidet P-40, 2 mM DTT, 5% glycerol) incubated with GFP-Trap agarose beads for 2 h; western blot with anti-GFP and anti-Flag

Binder	binding
B1	binds
B2	binds
